Test results: paper PMC7286819
Results are given in words; binding and its absence hold for the method and conditions named. Binding seen in cells or lysates may run through a third protein. Some entries that bind do so weakly or less than the wild type. For some of these results: Sequences can lack the tags named with a protein.

Amino acid sequences for entries named in this document (tags omitted). A change or cut given only in a name is not applied to a line headed by its entry. Residues count along the entry.
UniProt Q9NRC8: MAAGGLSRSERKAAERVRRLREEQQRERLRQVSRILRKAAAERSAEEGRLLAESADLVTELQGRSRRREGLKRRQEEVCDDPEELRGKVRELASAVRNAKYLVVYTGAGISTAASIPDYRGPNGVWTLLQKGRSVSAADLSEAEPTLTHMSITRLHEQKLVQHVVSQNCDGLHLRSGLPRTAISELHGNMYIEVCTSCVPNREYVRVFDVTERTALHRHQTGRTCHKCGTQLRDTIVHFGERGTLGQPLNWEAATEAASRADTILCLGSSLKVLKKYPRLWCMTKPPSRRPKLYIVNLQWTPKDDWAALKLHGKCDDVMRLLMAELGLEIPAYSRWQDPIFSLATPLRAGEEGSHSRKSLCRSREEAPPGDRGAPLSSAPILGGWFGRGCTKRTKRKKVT
GST-SIRT7 N terminus (1-89 aa): residues 1-89 of Q9NRC8
GST-SIRT7 C terminus (332-400 aa): residues 332-400 of Q9NRC8
UniProt Q00987: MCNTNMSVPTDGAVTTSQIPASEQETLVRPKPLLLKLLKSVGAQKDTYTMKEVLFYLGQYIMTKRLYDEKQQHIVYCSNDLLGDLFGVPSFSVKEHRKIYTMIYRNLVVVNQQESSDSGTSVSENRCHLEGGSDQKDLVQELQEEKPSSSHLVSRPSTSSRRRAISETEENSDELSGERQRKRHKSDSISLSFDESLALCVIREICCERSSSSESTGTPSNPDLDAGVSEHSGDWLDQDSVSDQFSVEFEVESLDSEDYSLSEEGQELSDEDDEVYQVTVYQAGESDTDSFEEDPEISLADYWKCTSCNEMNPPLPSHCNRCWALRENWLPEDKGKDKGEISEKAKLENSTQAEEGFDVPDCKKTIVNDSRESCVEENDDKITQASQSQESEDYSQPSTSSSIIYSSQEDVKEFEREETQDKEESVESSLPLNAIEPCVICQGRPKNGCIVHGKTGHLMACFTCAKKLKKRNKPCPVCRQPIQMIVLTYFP

Tests used:
[1] = molecular target: Sirtuin 7 (SIRT7), endogenous (human (endogenous in HCT116 and U2OS)) (UniProt Q9NRC8); test: co-IP; endogenous proteins, HCT116 lysates; immunoprecipitation with anti-IgG, anti-SIRT7 or anti-PCAF antibody, protein G/A-agarose; lysis buffer 1% NP-40, 20 mM Tris-HCl pH 8.0, 137 mM NaCl, 10% glycerol, 2 mM EDTA; immunoblot
FLAG-SIRT7 = FLAG-SIRT7 (UniProt Q9NRC8); test: co-IP; HCT116 transfected with FLAG-tagged plasmids; lysates immunoprecipitated with FLAG-conjugated M2 beads; immunoblot; for PCAF-MDM2 cells treated with 10 uM MG132, with or without SIRT7 knock-down (shSIRT7, si-SIRT7) and glucose deprivation for 12 h
[2] = molecular target: Sirtuin 7 (SIRT7), endogenous (human (endogenous in HCT116 and U2OS)) (UniProt Q9NRC8); test: co-IP; endogenous proteins, U2OS cells, SIRT7 and PCAF antibodies (Fig. S4B, C)
[3] = molecular target: Murine double minute (MDM2), endogenous (human (endogenous in HCT116 and U2OS)) (UniProt Q00987); test: co-IP; HCT116 transfected with SIRT7 plasmids (WT, SA/HY) or empty vector, 10 uM MG132 for 8 h; lysates immunoprecipitated with anti-MDM2 antibody; immunoblot
[4] = molecular target: p300/CBP-associated factor (PCAF), endogenous (human (endogenous in HCT116 and U2OS)) (UniProt Q92831); test: co-IP; HCT116 transfected with the indicated plasmids, with or without glucose deprivation for 12 h; lysates immunoprecipitated with anti-PCAF antibody; immunoblot
[5] = molecular target: T1, GST-PCAF bromo domain (652-833 aa) (UniProt Q92831); test: pull-down; GST-fusion proteins on glutathione-Sepharose 4B beads incubated with lysates of HCT116 cells transfected with FLAG-PCAF or FLAG-SIRT7 at 4 C overnight; washed with TEN buffer (0.5% NP-40, 20 mM Tris pH 7.4, 0.1 mM EDTA, 300 mM NaCl); immunoblot; only the target purified
T1 sequence: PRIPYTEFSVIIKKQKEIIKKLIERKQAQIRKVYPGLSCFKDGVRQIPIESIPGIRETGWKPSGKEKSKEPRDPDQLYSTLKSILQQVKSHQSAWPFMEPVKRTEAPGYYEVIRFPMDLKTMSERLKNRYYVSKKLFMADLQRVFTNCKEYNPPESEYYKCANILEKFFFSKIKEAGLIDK

[6] = molecular target: T2, GST-PCAF N terminus (1-351 aa) (UniProt Q92831); test: as above
T2 sequence: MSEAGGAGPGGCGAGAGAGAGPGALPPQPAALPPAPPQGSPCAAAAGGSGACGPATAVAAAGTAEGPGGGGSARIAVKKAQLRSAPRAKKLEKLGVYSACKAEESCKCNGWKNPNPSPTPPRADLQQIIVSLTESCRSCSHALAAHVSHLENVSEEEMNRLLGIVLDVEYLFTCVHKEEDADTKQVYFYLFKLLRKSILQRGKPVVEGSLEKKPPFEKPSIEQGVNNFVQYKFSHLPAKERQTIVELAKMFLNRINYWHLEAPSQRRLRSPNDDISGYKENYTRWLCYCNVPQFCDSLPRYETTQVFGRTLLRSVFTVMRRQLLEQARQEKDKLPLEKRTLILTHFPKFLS

[7] = molecular target: p300/CBP-associated factor (PCAF), endogenous (human (endogenous in HCT116 and U2OS)) (UniProt Q92831); test: co-IP; endogenous proteins, HCT116 lysates; immunoprecipitation with anti-IgG, anti-SIRT7 or anti-PCAF antibody, protein G/A-agarose; lysis buffer 1% NP-40, 20 mM Tris-HCl pH 8.0, 137 mM NaCl, 10% glycerol, 2 mM EDTA; immunoblot
FLAG-PCAF [8] = molecular target: FLAG-PCAF (UniProt Q92831); test: co-IP; HCT116 transfected with FLAG-tagged plasmids; lysates immunoprecipitated with FLAG-conjugated M2 beads; immunoblot; for PCAF-MDM2 cells treated with 10 uM MG132, with or without SIRT7 knock-down (shSIRT7, si-SIRT7) and glucose deprivation for 12 h
[9] = molecular target: p300/CBP-associated factor (PCAF), endogenous (human (endogenous in HCT116 and U2OS)) (UniProt Q92831); test: co-IP; endogenous proteins, U2OS cells, SIRT7 and PCAF antibodies (Fig. S4B, C)
[10] = molecular target: GST-SIRT7 N terminus (1-89 aa) (UniProt Q9NRC8); test: pull-down; GST-fusion proteins on glutathione-Sepharose 4B beads incubated with lysates of HCT116 cells transfected with FLAG-PCAF or FLAG-SIRT7 at 4 C overnight; washed with TEN buffer (0.5% NP-40, 20 mM Tris pH 7.4, 0.1 mM EDTA, 300 mM NaCl); immunoblot; only the target purified
[11] = molecular target: GST-SIRT7 C terminus (332-400 aa) (UniProt Q9NRC8); test: as above
FLAG-PCAF [12] = molecular target: FLAG-PCAF (UniProt Q92831); test: co-IP; U2OS cells, PCAF (WT) or mutants (Fig. S6E); legend not shown
FLAG-PCAF (K720R) [13] = molecular target: T3, FLAG-PCAF (K720R) (UniProt Q92831); test: as above
T3 sequence: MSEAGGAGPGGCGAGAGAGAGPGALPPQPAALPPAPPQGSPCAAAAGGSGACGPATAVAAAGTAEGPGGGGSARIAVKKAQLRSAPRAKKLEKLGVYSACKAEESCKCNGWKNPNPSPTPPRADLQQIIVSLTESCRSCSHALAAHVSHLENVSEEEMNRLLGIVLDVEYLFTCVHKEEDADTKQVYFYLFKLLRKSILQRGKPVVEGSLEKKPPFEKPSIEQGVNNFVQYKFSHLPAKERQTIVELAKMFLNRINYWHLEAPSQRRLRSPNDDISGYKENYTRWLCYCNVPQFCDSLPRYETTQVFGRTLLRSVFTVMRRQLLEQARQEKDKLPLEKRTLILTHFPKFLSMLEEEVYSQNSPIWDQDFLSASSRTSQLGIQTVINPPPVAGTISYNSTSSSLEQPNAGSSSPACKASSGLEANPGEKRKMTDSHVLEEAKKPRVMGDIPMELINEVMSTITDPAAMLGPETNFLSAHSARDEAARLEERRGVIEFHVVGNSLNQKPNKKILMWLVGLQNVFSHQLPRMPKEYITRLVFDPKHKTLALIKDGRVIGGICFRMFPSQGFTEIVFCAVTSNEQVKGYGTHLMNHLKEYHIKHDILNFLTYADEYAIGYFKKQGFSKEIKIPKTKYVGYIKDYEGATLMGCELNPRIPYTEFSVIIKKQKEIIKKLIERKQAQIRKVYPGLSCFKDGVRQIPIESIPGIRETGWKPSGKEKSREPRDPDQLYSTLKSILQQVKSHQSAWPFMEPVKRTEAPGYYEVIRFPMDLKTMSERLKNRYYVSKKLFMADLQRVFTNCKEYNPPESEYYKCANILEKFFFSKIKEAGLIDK

FLAG-PCAF (K720R) [14] = molecular target: T3, FLAG-PCAF (K720R); test: co-IP; HCT116 transfected with FLAG-tagged plasmids; lysates immunoprecipitated with FLAG-conjugated M2 beads; immunoblot; for PCAF-MDM2 cells treated with 10 uM MG132, with or without SIRT7 knock-down (shSIRT7, si-SIRT7) and glucose deprivation for 12 h

Measured: binding

p300/CBP-associated factor (PCAF), endogenous (from UniProt Q92831 1-832)
binds: [1] | FLAG-SIRT7 | [2] | [3]

FLAG-SIRT7 (from UniProt Q9NRC8 1-400)
binds: [4] | [5] | [6]

Sirtuin 7 (SIRT7), endogenous (from UniProt Q9NRC8 1-400)
binds: [7] | FLAG-PCAF [8] | [9]

FLAG-PCAF (from UniProt Q92831 1-832)
binds: [10] | [11]

Murine double minute (MDM2), endogenous (from UniProt Q00987 1-491)
binds: FLAG-PCAF [12] | FLAG-PCAF (K720R) [13] | FLAG-PCAF [8] | FLAG-PCAF (K720R) [14]
